At least one structure is not confirmed: it was looked up by name or label, or the drawing left a doubt.
Legend:
CD36/FAT = CD36/FAT mRNA expression in NHK treated with PPAR activators and TTA; type: cell-based, human; settings: NHK treated over a period of three days
Protocol: (§1) Normal adult human epidermal keratinocytes were isolated from human skin obtained after plastic surgery. First passage keratinocytes were grown in serum-free KGM (GIBCO BRL/Life Technologies, Inc.) and replated in 75 cm^2 culture flask or in 96-well microtiterplates preheated at 37° C. at a density of 3500 cells/well. Cells were incubated in a humidified atmosphere of 5% CO2 at 37° C. When cells reached 40% confluence they were treated with growth medium containing selective PPAR ligands (either alone or in combinations as indicated), tetradecylthioacetic acid (TTA) or 1,2 mM Ca^2+. Wy14643 was obtained from Calbiochem, BRL49653 was kindly provided by J. Fleckner, Novo Nordisk), L165041 was kindly provided by D. E. Moller (Merck Research Laboratories, Rahway, N.J.). TTA was manufactured in accordance with example 1. Medium was changed every day. For differentiation, keratinocytes at 40% confluence (day 0) were treated with 1,2 mM CaCl2. Medium was changed every other day. HaCaT cells were obtained from L. Aarenstrup (Danish Cancer Society, Denmark). […]
(§2) To evaluate how TTA and the various PPAR activators affected expression of a known PPAR responsive gene and differentiation of keratinocytes, we first measured the mRNA levels of CD36/FAT and the two differentiation markers, Inv and Tg-1 in NHK treated with PPAR selective activators and TTA over a period of three days (FIG. 1a).

Inv = Inv mRNA expression in NHK (RT-PCR); type: cell-based, human; settings: NHK treated over a period of three days
Protocol: as §1, §2

CN(CCOc1ccc(CC2SC(=O)NC2=O)cc1)c1ccccn1 (centres unmarked) [BRL49653]
expression of CD36/FAT mRNA (CD36/FAT): induced expression of CD36/FAT | Inv mRNA expression (Inv): no effect on Inv mRNA expression
